Experimental data from article PMC8500422.
Results are given in words; binding and its absence hold for the method and conditions named. Binding seen in cells or lysates may run through a third protein. Some results given as binding are weak or reduced against the parent protein; the word gives no strength. Where a sequence is shown, tags or fusion partners need not be part of it.

Experiments:
EGFP-fused BROMI (human) = target: T1, EGFP-fused BROMI (human) (UniProt Q96NH3); assay: co-IP; visible immunoprecipitation (VIP) assay: lysates of HEK293T cells coexpressing EGFP-fused and mChe-fused proteins (HMDEKN buffer: 10 mM HEPES pH 7.4, 5 mM MgSO4, 1 mM DTT, 0.5 mM EDTA, 25 mM KCl, 0.05% NP-40), precipitated with GST-tagged anti-GFP Nb on glutathione–Sepharose 4B beads, 1 h at 4°C; red fluorescence on the washed beads observed under a microscope
T1 sequence: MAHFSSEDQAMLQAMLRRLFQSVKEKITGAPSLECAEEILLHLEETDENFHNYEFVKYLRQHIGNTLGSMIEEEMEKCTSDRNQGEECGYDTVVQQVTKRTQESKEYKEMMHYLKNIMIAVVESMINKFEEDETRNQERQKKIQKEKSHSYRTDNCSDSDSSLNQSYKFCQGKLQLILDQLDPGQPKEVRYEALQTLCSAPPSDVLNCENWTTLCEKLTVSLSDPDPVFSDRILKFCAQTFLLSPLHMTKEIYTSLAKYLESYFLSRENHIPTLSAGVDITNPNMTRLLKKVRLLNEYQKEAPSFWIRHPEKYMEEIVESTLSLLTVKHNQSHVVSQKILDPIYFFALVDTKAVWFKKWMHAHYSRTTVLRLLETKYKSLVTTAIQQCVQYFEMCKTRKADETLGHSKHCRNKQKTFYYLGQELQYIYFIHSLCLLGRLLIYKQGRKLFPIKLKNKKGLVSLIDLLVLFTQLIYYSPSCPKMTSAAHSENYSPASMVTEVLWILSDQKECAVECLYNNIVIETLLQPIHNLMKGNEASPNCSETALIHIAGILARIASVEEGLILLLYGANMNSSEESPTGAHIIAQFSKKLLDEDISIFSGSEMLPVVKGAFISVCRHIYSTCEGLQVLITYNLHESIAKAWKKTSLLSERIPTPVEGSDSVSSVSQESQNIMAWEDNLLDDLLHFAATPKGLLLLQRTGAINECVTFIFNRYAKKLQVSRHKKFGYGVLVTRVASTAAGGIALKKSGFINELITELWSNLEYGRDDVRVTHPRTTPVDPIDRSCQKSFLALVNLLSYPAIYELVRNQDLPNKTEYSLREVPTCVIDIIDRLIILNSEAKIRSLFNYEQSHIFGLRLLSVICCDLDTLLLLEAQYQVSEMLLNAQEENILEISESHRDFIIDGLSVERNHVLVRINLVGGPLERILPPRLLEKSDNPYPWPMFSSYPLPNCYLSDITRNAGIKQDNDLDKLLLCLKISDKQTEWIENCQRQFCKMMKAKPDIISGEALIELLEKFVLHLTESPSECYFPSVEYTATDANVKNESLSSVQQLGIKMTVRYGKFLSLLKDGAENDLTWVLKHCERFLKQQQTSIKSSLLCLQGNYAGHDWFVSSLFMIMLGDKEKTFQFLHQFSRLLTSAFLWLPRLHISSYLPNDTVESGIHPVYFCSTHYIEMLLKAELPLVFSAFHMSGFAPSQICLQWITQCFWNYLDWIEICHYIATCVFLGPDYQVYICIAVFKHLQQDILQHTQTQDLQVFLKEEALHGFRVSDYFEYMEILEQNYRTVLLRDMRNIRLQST

[1] = target: T2, EGFP-fused BROMI(182–1,298) (human) (UniProt Q96NH3); assay: as above
T2 sequence: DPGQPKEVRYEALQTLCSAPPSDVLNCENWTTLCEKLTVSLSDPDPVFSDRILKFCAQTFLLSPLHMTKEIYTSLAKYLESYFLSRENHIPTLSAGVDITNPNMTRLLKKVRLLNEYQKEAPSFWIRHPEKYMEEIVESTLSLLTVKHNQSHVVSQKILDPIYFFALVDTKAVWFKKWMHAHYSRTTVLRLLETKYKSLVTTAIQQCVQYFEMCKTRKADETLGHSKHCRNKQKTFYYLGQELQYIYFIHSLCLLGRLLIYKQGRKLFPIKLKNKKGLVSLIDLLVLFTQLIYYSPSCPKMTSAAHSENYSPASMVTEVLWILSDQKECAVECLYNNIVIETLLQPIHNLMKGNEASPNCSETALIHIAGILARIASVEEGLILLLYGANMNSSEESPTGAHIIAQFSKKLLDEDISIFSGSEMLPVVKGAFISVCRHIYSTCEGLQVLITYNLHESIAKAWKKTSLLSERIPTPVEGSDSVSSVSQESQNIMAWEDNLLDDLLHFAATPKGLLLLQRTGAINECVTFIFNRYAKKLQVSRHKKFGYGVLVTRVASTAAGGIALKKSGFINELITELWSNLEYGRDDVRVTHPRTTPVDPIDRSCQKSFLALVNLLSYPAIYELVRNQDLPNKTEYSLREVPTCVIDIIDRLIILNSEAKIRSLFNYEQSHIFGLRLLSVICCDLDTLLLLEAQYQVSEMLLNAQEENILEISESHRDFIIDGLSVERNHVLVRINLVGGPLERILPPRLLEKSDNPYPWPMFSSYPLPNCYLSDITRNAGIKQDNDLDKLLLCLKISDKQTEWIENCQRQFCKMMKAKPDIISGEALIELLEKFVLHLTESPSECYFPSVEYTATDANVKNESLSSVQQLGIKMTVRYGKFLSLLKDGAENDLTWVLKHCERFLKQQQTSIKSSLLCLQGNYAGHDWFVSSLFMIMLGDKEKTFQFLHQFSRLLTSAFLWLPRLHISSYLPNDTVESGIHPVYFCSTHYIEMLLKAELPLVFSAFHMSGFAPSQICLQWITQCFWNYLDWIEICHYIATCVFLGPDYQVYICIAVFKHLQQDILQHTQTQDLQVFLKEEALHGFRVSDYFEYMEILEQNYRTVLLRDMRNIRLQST

binding (EGFP-fused BROMI (human)): binds
binding [1]: binds
Substance: CCRK-mChe (from UniProt Q8IZL9-1 1-346)
